Test results as given in article PMC12431657, “Discovery and mechanistic insights of dibenzoylmethane as a broad spectrum inhibitor of coronavirus” (PLOS Pathogens, 2025).
Counter-ions that a name gives are not always drawn. Like-named read-outs stand apart in the source and are kept apart here. Among all 3,300 compounds or so, about 95 (3%) showed an effect of 50% or more. The list shows a part of the results. Square brackets hold non-standard residues; d marks the D form. Peptide text beside a SMILES is read from it. * marks the point of attachment. Sta = CC(C)C[C@H](N)[C@@H](O)CC(=O)O; Isovaleryl = CC(C)CC(=O)*

Test system: HCoV-229E
Parameters: species or system Huh-7; HTS, protection from HCoV-229E induced cell death, luminescent cell viability (CellCounting-Lite 2.0), inhibition rate
Settings: 24 h post infection, 1 h compound pre-incubation, 10 µM, inhibitor

SMILES | 229E Inhibition rate | 229E Inhibition rate (229E Inhibition rate, 24 h)
C/C=C/SC[C@H](NC(=O)CC[C@H](N)C(=O)O)C(=O)O [γ-Glutamyl-S-1-propenyl cysteine] | 13.7% | –
CC(C)c1ccc(C=O)cc1 [Cuminaldehyde] | 21.2% | –
C[C@H](CCC(=O)O)[C@H]1CC[C@H]2[C@@H]3C(=O)C[C@@H]4C[C@H](O)CC[C@]4(C)[C@H]3C[C@H](O)[C@]12C [7-keto-Deoxycholic acid] | 13.1% | –
C=C1CC[C@H]2C(=C)CC[C@H]3C(=C)C(=O)O[C@@H]3[C@@H]12 [Dehydrocostus Lactone] | 29.7% | –
O=C(O)CCCCCCCCCCCCCCC(=O)O [Hexadecanedioic acid] | 10.9% | –
CN(CC(=O)O)C(=N)NP(=O)(O)O [Phosphocreatine (disodium)] | 24.1% | –
CC(=O)NCCc1cnc[nH]1 [N-Acetylhistamine] | 8.3% | –
CO[C@H]1C[C@H](O[C@H]2CC[C@@]3(C)C(=CC[C@]4(O)[C@@H]3C[C@@H](OC(=O)c3ccc(O)cc3)[C@@]3(C)[C@]4(O)CC[C@@]3(O)C(C)=O)C2)O[C@H](C)[C@H]1O[C@H]1C[C@H](OC)[C@H](O[C@H]2C[C@@H](OC)[C@H](O)[C@@H](C)O2)[C@@H](C)O1 [Qingyangshengenin A] | 29.7% | –
CC(=O)O[C@@H]1C(=O)C2=C(C(=O)C[C@H]3C(C)(C)C(=O)CC[C@]23C)[C@]2(C)C(=O)C[C@H]([C@H](C)CC(=O)CC(C)C(=O)O)[C@@]12C (stereo partly shown) [Ganoderic acid F] | 12% | –
C/C=C1\C(=O)C[C@H]2[C@@H]3CCC4=CC(=O)CC[C@]4(C)[C@H]3CC[C@]12C [Guggulsterone] | – | 12.7%
CC(=O)C(=O)O [Pyruvic acid] | 48.6% | –
Cc1ncc(CO)c(CO)c1O [Pyridoxine] | – | 14.9%
COc1cccc(O)c1C(=O)O [2-Hydroxy-6-methoxybenzoic acid] | 33.5% | –
COc1c2c(cc3oc(C)cc(=O)c13)OC(C(C)(C)O[C@@H]1O[C@H](CO)[C@@H](O)[C@H](O)[C@H]1O)C2 (stereo partly shown) [5-O-Methylvisammioside] | 6.3% | –
COc1cc(CO)ccc1O [Vanillyl alcohol] | 7.4% | –
CC1=C2C[C@H]3[C@@H](CC=C4C[C@@H](O)CC[C@@]43C)[C@@H]2CC[C@]12O[C@@H]1C[C@H](C)CN[C@H]1[C@H]2C [Cyclopamine] | 31.6% | –
C[C@@H]1O[C@@H](OC[C@H]2O[C@@H](Oc3cc(O)c4c(=O)cc(-c5ccc(O)cc5)oc4c3)[C@H](O[C@@H]3O[C@@H](C)[C@H](O)[C@@H](O)[C@H]3O)[C@@H](O)[C@@H]2O)[C@H](O)[C@H](O)[C@H]1O [Ligustroflavone] | 8.7% | –

SMILES | 229E Inhibition rate | 229E Inhibition rate (229E Inhibition rate, 24 h)
COc1ccc(-c2cc(=O)c3ccccc3o2)cc1OC [3',4'-Dimethoxyflavone] | 0% | –
CC(=O)OCC(=O)[C@H]1CC[C@H]2[C@@H]3CCC4=CC(=O)CC[C@]4(C)[C@H]3CC[C@]12C [Deoxycorticosterone acetate] | 37.7% | –
CC(C)CC(=O)N[C@H](C(=O)N[C@H](C(=O)N[C@@H](CC(C)C)[C@@H](O)CC(=O)N[C@@H](C)C(=O)N[C@@H](CC(C)C)[C@@H](O)CC(=O)O)C(C)C)C(C)C [Pepstatin (Trifluoroacetate)] (Isovaleryl-VV[Sta]A[Sta]-OH) | – | 38.1%
CC(C)=CCC[C@](C)(O[C@@H]1O[C@H](CO[C@@H]2O[C@H](CO)[C@@H](O)[C@H](O)[C@H]2O)[C@@H](O)[C@H](O)[C@H]1O)[C@H]1CC[C@]2(C)[C@@H]1[C@H](O)C[C@@H]1[C@@]3(C)CC[C@H](O[C@@H]4O[C@H](CO)[C@@H](O)[C@H](O)[C@H]4O[C@@H]4O[C@H](CO)[C@@H](O)[C@H](O)[C@H]4O[C@@H]4OC[C@@H](O)[C@H](O)[C@H]4O)C(C)(C)[C@@H]3CC[C@]12C [Notoginsenoside Fa] | 0% | –
C[C@@H]1CCCCCCCCCCCCC(=O)C1 [Muscone] | 12.3% | –
C/C=C(\C)C(=O)O[C@H]1C[C@@H](OC(C)=O)[C@@]2(C(=O)OC)CO[C@H]3[C@@H](O)[C@@](C)([C@]45O[C@@]4(C)[C@H]4C[C@@H]5O[C@@H]5OC=C[C@@]54O)[C@H]4[C@]1(CO[C@]4(O)C(=O)OC)[C@@H]32 [Azadirachtin] | 39.3% | –
Cc1cc2c(C(C)C)c(O)c(O)c(C=O)c2c(O)c1-c1c(C)cc2c(C(C)C)c(O)c(O)c(C=O)c2c1O [Gossypol] | 9.9% | –
C=CCOC(Cn1ccnc1)c1ccc(Cl)cc1Cl (stereo not shown) [Imazalil] | 26.3% | –
O=C(/C=C/c1ccc(O)c(O)c1)O[C@@H]1C[C@](O)(C(=O)O)C[C@@H](O)[C@H]1O [Chlorogenic acid] | 7.2% | –
C[C@@H]1O[C@@H](OC[C@H]2O[C@@H](Oc3cc(O)c4c(=O)cc(-c5ccc(O)cc5)oc4c3)[C@H](O)[C@@H](O)[C@@H]2O)[C@H](O)[C@H](O)[C@H]1O [Isorhoifolin] | 0% | –
O=P(O)(O)OC(CO)CO [β-Glycerophosphate (disodium salt hydrate)] | 11.7% | –
COc1ccc(/C=C/c2cc(O)cc(O)c2)cc1 [4'-Methoxyresveratrol] | 21.2% | –
O=c1cc(-c2ccccc2)oc2c1ccc1ccccc12 [Alpha-Naphthoflavone] | 5.7% | –
C=CC1CNC(=S)O1 (racemic) [DL-Goitrin] | 5.7% | –
C[C@]1(Cn2ccnn2)[C@H](C(=O)O)N2C(=O)C[C@H]2S1(=O)=O [Tazobactam] | 3.6% | –
CC[C@@H](CO)NCCN[C@@H](CC)CO [Ethambutol (dihydrochloride)] | 37.8% | –
OC[C@H]1O[C@@](CO)(OC[C@@]2(OC[C@@]3(OC[C@@]4(OC[C@@]5(OC[C@@]6(OC[C@@]7(O[C@H]8O[C@H](CO)[C@@H](O)[C@H](O)[C@H]8O)O[C@H](CO)[C@@H](O)[C@@H]7O)O[C@H](CO)[C@@H](O)[C@@H]6O)O[C@H](CO)[C@@H](O)[C@@H]5O)O[C@H](CO)[C@@H](O)[C@@H]4O)O[C@H](CO)[C@@H](O)[C@@H]3O)O[C@H](CO)[C@@H](O)[C@@H]2O)[C@@H](O)[C@@H]1O [Fructo-oligosaccharide DP8/GF7] | 14.5% | –

Ordered by length of the SMILES (ascending): part of the list above.
SMILES | 229E Inhibition rate | 229E Inhibition rate (229E Inhibition rate, 24 h)
C[C@@H]1CCCCCCCCCCCCC(=O)C1 [Muscone] | 12.3% | –
CC[C@@H](CO)NCCN[C@@H](CC)CO [Ethambutol (dihydrochloride)] | 37.8% | –
COc1ccc(/C=C/c2cc(O)cc(O)c2)cc1 [4'-Methoxyresveratrol] | 21.2% | –
C[C@]1(Cn2ccnn2)[C@H](C(=O)O)N2C(=O)C[C@H]2S1(=O)=O [Tazobactam] | 3.6% | –
C[C@@H]1O[C@@H](OC[C@H]2O[C@@H](Oc3cc(O)c4c(=O)cc(-c5ccc(O)cc5)oc4c3)[C@H](O)[C@@H](O)[C@@H]2O)[C@H](O)[C@H](O)[C@H]1O [Isorhoifolin] | 0% | –
C/C=C(\C)C(=O)O[C@H]1C[C@@H](OC(C)=O)[C@@]2(C(=O)OC)CO[C@H]3[C@@H](O)[C@@](C)([C@]45O[C@@]4(C)[C@H]4C[C@@H]5O[C@@H]5OC=C[C@@]54O)[C@H]4[C@]1(CO[C@]4(O)C(=O)OC)[C@@H]32 [Azadirachtin] | 39.3% | –
